Data taken from article PMC6925144, “A prospective compound screening contest identified broader inhibitors for Sirtuin 1” (Scientific Reports, 2019).
Over roughly 3,200 compounds, “TSA(without NAD+) / Primary screening (TSA) / delta Tm (K)” has its median near -0.07; the highest 2% begin near 0.37. The list shows a part of the results.

Sequences of proteins named here, by UniProt entry; tags and fusion partners are left off. Residues count along the entry.
UniProt Q96EB6, 2-747 limits assumed: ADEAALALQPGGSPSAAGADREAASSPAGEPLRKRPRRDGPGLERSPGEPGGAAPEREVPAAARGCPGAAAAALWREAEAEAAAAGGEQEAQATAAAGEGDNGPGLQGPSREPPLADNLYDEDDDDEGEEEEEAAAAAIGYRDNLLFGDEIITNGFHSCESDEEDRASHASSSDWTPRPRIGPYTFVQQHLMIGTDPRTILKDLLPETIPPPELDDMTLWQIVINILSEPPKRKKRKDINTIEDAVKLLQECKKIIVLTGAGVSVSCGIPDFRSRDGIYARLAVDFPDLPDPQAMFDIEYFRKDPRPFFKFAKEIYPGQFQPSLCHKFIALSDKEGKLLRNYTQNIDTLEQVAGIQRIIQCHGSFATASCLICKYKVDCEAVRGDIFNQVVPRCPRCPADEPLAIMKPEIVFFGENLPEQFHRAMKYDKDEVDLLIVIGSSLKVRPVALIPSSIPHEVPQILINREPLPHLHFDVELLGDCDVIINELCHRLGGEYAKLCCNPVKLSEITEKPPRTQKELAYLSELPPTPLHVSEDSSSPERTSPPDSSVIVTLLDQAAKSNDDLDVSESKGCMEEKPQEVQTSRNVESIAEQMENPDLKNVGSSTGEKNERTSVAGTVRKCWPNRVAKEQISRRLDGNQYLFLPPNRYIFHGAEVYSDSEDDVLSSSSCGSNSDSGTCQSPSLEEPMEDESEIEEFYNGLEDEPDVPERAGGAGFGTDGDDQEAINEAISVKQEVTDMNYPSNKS

molecular target: NAD-dependent deacetylase Sirtuin 1 (human, UniProt Q96EB6); test: primary screen, delta tm; set-up: single well (n = 1); conditions: 10 µM
Method in brief: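 Thermal shift of Sirtuin 1 measured without NAD+, compound at 10 µM (n = 1); value is ΔTm, with hits defined as ΔTm > 0.45 K or < −1.5 K. Hits retested at 5, 10, 20 µM (n = 4) and counterscreened on bovine carbonic anhydrase and ABL1 SH2 domain.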

Point of comparison: `COC(=O)c1c(C)[nH]c(C(=O)C(C)OC(=O)c2ccc(C(N)=O)cc2)c1C` (stereo not drawn), “TSA(without NAD+) / Primary screening (TSA) / delta Tm (K)” value -0.07 K. Against it:
- COC(=O)c1ccc2[nH]c(CNC(=O)CSC)nc2c1 — higher, -0.02 K
- O=C(NCC1CC2c3ccccc3C1c1ccccc12)Nc1cccnn1 (stereo not drawn) — higher, -0.02 K
- CC(N)CCCN (stereo not drawn) — higher, 0.08 K
- CCN(CC)S(=O)(=O)c1cccc(C(=O)N[C@H](C(=O)NCC23CC4CC(CC(C4)C2)C3)C(C)C)c1 — higher, -0.03 K
- CN(Cc1cnccn1)C(=O)Nc1ccc2c(c1)CCCN2C — lower, -0.23 K
- Cn1c(-c2ccccc2)c(CO)c2ccccc21 — the same, -0.07 K
- CCOCc1cn(CC(=O)c2ccc(CC)cc2)c(C)nc1=N — lower, -0.14 K
- CC(N)CCCO (stereo not drawn) — lower, -0.22 K
- O=C(NC1CCOc2ccccc21)c1ccc2c(=O)n3c(nc2c1)CCC3 (stereo not drawn) — lower, -0.08 K
- CC(Nc1ccnc(CC#N)c1)C(=O)N1CCCCC1C (stereo not drawn) — lower, -0.28 K
- COc1ccc(NC(=O)C2=COCCO2)cc1Cc1ccccc1 — higher, 0.45 K
- CN(c1ccc(OCc2ccccc2C#N)cc1)S(=O)(=O)c1ccccc1 — lower, -0.12 K
- COc1ccc(N(C)S(=O)(=O)c2cccc(C(=O)Nc3ccc(OC)c(OC)c3)c2)cc1 — lower, -0.31 K
- NC(=O)c1cccc(CCNC(=O)CCC(=O)c2ccc3c(c2)OCCO3)c1 — lower, -0.24 K
- O=C1NC(=S)N/C1=C/c1ccc(-c2ccccc2F)o1 — higher, 0.05 K
- NC(=O)c1cc2c(ccc3ccccc32)o/c1=N\c1ccc(Br)cc1 — lower, -0.32 K
- CCCOc1ccc(C(=O)C2=C(O)C(=O)N(CCN3CCOCC3)C2c2ccco2)cc1 (stereo not drawn) — higher, -0.02 K
- COc1cccc(N2CCCC(NC(=O)CCc3cnccn3)C2)c1 (stereo not drawn) — lower, -0.14 K
- NC(=O)c1ccc(NC(=O)CSc2nnc(-c3ccc4c(c3)OCO4)o2)cc1 — higher, -0.03 K
- O=C(C1=C(O)C(=O)N(CCCN2CCOCC2)C1c1ccccn1)c1ccco1 (stereo not drawn) — lower, -0.08 K
- COC(=O)c1ccc2[nH]c3c(c2c1)CN(S(C)(=O)=O)CC3 — higher, -0.03 K
- O=C1NC(=O)C(=Cc2cn(-c3ccccc3)nc2-c2cc3ccccc3oc2=O)C(=O)N1 — lower, -0.43 K
- Cn1c(COc2nc(-c3ccccc3Cl)no2)cc(=O)n(C)c1=O — higher, -0.05 K
- Nc1ncnc(N2Cc3cccc(Br)c3C2)c1Cl — lower, -0.21 K
- COc1cccc(CCNC(C(N)=O)c2ccccc2)c1 (stereo not drawn) — lower, -0.13 K
- O=C1CCc2cc(NC(=O)c3cccnc3)ccc2N1 — higher, -0.04 K
- O=C(c1sc2ccccc2c1Cl)N1CCCN(c2nnc(C(F)(F)F)s2)CC1 — lower, -0.13 K
- COc1ccc(C)cc1NCCn1c(C)c(C)n2c3c(=O)[nH]c(=O)n(C)c3nc12 — lower, -0.08 K
- COc1ccc(CC(=O)NCCNC(=O)c2ccc(C)c(F)c2)cc1 — lower, -0.14 K
- COC(=O)c1cc(NC(=O)CN2C(=O)NC(C)(c3ccc4ccccc4c3)C2=O)cc(C(=O)OC)c1 (stereo not drawn) — higher, 0.15 K
- Cc1ccc2c(CC(=O)Nc3ccccc3Cc3ccccc3)coc2c1 — higher, 0.07 K
- CN(Cc1ccccc1)C(=O)NCC1CCN(c2ccncc2)CC1 — higher, -0.02 K
- CN(c1ccc(O)cc1)S(=O)(=O)c1ccc2ccccc2c1 — higher, 0.07 K
- O=C(Oc1ccc2oc3ccccc3c2c1)c1ccc([N+](=O)[O-])cc1 — higher, -0.02 K
- CCCN(CC(=O)Nc1ccc(C(N)=O)cc1)CC(=O)Nc1ccccc1C — higher, 0.08 K
- Cc1ccc(C(=O)C2=C(O)C(=O)N(CCCN3CCOCC3)C2c2ccc([N+](=O)[O-])cc2)cc1 (stereo not drawn) — higher, 0.07 K
- O=S(=O)(c1cccc(Br)c1)N1CCN(c2ncnc3cc(Cl)ccc23)CC1 — higher, 0.07 K
- CN(CC(=O)Nc1ccc(Cl)cc1)C(=O)c1ccccc1SCC(=O)NC12CC3CC(CC(C3)C1)C2 — lower, -0.31 K
- O=C1CCC(C(=O)Nc2cccc(Cn3cnc4ccccc43)c2)N1 (stereo not drawn) — lower, -0.22 K
- Sc1nc2ccccc2c2nc(-c3cc4ccccc4o3)nn12 — higher, -0.03 K
- c1coc(CNc2ncnc3ccsc23)c1 — higher, 0.05 K
- N#Cc1ccc(S(=O)(=O)NCc2ccc(S(N)(=O)=O)s2)cc1 — lower, -0.13 K
- CC(C(N)=O)N(C)Cc1ccccc1Cl (stereo not drawn) — lower, -0.08 K
- CCn1c2ccccc2c2cc(NC(=O)C(C)OC(=O)c3cccc(S(=O)(=O)Nc4ccc(Cl)cc4)c3)ccc21 (stereo not drawn) — higher, 0.56 K
- CC(NC(=O)COC(=O)c1ccccc1C(=O)N1CCN(c2ccccc2)CC1)C12CC3CC(CC(C3)C1)C2 (stereo not drawn) — lower, -0.51 K
- Cc1ccc(OCCN)cc1 — lower, -0.18 K
- CC(OC(=O)c1cccc(S(=O)(=O)Nc2ccc(F)cc2)c1)c1nc2ccccc2c(=O)[nH]1 (stereo not drawn) — higher, 0.02 K
- Cc1ccc(CSc2nc3ccsc3c(=O)n2C)cc1 — higher, -0.01 K
- CC(C)C(NC(=O)c1ccco1)C(=O)NNC(=O)C1CC1 (stereo not drawn) — lower, -0.22 K
- CN(CC(=O)Nc1ccc(Cl)cc1)C(=O)CCn1ccc2ccccc21 — higher, 0.25 K
- COc1ccc(C=C2C(=O)NC(=S)NC2=O)cc1 — higher, 0.13 K
- NC(=O)c1ccc(S(=O)(=O)N2CCN(CC(O)c3ccccc3)CC2)cc1 (stereo not drawn) — higher, 0.17 K
- Cc1nc2ccc(Cl)cc2cc1C(=O)NCC(c1ccccc1)N1CCCC1 (stereo not drawn) — lower, -0.22 K
- CCCn1c(NC(=O)c2ccc3c(c2)CCC(=O)N3)nc2ccccc21 — higher, 0.12 K
- NC(=O)c1ccc(NC(=O)C(Cc2ccccc2)NC(=O)c2ccccc2)cc1 (stereo not drawn) — higher, 0.07 K
- Cc1ccc(C)c(NC(=O)Cc2nc(COC(=O)c3ccc(O)cc3O)cs2)c1 — higher, 0.22 K
- Cc1nc(-c2ccsc2)sc1C(=O)NCc1ccc(N2CCOCC2)c(F)c1 — higher, 0.09 K
- Cc1nc(C)c(CNC(=O)N2CC(C)c3ccccc32)s1 (stereo not drawn) — lower, -0.08 K
- CN(C(=O)Cc1ccc(NC(=O)NCc2ccc(-n3cncn3)nc2)cc1)c1ccccc1 — higher, 0.08 K
- COc1ccccc1-c1noc(C(C)NC(=O)C(C)NC(C)=O)n1 (stereo not drawn) — lower, -0.08 K
- Cc1cc(C(=O)CN2CCCC2c2cccn2C)c(C)n1-c1ccc(S(N)(=O)=O)cc1 (stereo not drawn) — higher, -0.05 K
- O=C(CC12CC3CC(CC(C3)C1)C2)NN/C=C1/C(=O)N(Cc2ccccc2)C(=O)c2ccccc21 — higher, 0.32 K
- CCCNc1nnc(S)s1 — lower, -0.43 K
- CCc1cc2c(N3CCN(CCCc4nc(-c5cccs5)no4)CC3)ncnc2s1 — lower, -0.38 K
- CCN(CC)C(=O)Nc1ccc(C(C)NC(=O)c2cc3c(F)cccc3[nH]2)cc1 (stereo not drawn) — higher, 0.02 K
- O=C(CC12CC3CC(CC(O)(C3)C1)C2)NCc1cc(-c2ccccc2)on1 — lower, -0.08 K
- O=c1[nH]c(CN2CCN(c3ncnc4sc5c(c34)CCCCC5)CC2)nc2sc3c(c12)CCCC3 — lower, -0.17 K
- O=C(NC1CCS(=O)(=O)c2ccccc21)C1=Cc2ccccc2OC1 (stereo not drawn) — lower, -0.08 K
- CC(NCC1(N(C)C)CCOCC1)c1ccc(S(C)(=O)=O)cc1 (stereo not drawn) — lower, -0.15 K
- Cc1ccc2[nH]c(SCc3cc(=O)oc4ccc5ccccc5c34)nc2c1 — higher, 0.28 K
- CC(O)c1nc2ccccc2n1Cc1cnn(C)c1C(F)(F)F (stereo not drawn) — lower, -0.15 K
- N#Cc1ccc(S(=O)(=O)N2CCN(c3ncnc4cc(Cl)ccc34)CC2)cc1 — higher, 0.22 K
- O=C(c1cnc(-c2ccccc2)nc1)c1cc(Br)ccc1O — lower, -0.15 K
- CCC(CC)N(c1ccc(C)c(C)c1)S(=O)(=O)c1cccc(C(N)=O)c1 — higher, -0.05 K
- O=C(O)Cn1nc(-c2ccccc2)ccc1=O — higher, 0.02 K
- COC(C)[C@H](C)N (stereo partly drawn) — lower, -0.23 K
- O=C(Nc1cccc2ccccc12)N1CCC(c2ccc(O)cc2)CC1 — lower, -0.08 K
- CCc1cc2c(N3CCCC3)nc(C)nc2s1 — the same, -0.07 K
- CCOC(=O)c1c(C)[nH]c(C)c1C(=O)COC(=O)c1cccc(S(=O)(=O)N2CC3(C)CC2CC(C)(C)C3)c1 (stereo not drawn) — higher, -0.02 K
- COc1ccc(N(C)S(=O)(=O)c2cccc(C(=O)NCCCOc3cccc(C)c3)c2)cc1 — higher, -0.03 K
- Oc1ccc(Cl)cc1/C=N/c1ccccc1 — lower, -0.28 K
- CCCn1ccnc1S(=O)(=O)CC(=O)Nc1ccc(C(N)=O)cc1 — lower, -0.12 K
- NCCCCN — lower, -0.17 K
- Nc1ncnc2c1cnn2-c1ccccc1 — higher, -0.03 K
- CCc1nn2c(=O)cc(CNc3cc(Cl)ccc3F)nc2s1 — higher, -0.05 K
- CNC(=O)C1CNc2ccccc2O1 (stereo not drawn) — higher, -0.02 K
- COc1ccc2cc(C3(C)NC(=O)N(CC(=O)NCC45CC6CC(CC(C6)C4)C5)C3=O)ccc2c1 (stereo not drawn) — higher, -0.02 K
- CC(CC(O)c1ccccc1)NC(=O)c1cccc(S(=O)(=O)NCC2CCCO2)c1 (stereo not drawn) — higher, -0.02 K
- C[C@H](NC(N)=O)C(=O)OCC(=O)Nc1ccc(C(N)=O)cc1 — higher, 0.02 K
- NC(=O)COC(=O)C1CC(=O)N(c2ccc3c(c2)OCCO3)C1 (stereo not drawn) — higher, -0.02 K
- COc1ccc(NC(=O)c2cccc(S(=O)(=O)NC(C)C34CC5CC(CC(C5)C3)C4)c2)cc1S(=O)(=O)N1CCOCC1 (stereo not drawn) — higher, 0.08 K
- CN(CC(=O)NCc1ccco1)CC(=O)Nc1nc(-c2c[nH]c3ccccc23)cs1 — lower, -0.13 K
